PubChem BioAssay AID1159584 – Peter MacCallum Cancer Centre, 2016
Assay: 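Knock-downs that harm CDH1-null cells more than parental MCF10A cells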 (primary screen). Cell system: human MCF10A breast epithelial cells, parental and CDH1-null. Reagents: siRNA against human genes. Detection: 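ATP luminescence (CellTiter-Glo) viability per line relative to mean mock wells over all plates, and the ratio of CDH1-null to parental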. Scale: CDH1-null / parental viability ratio: higher = CDH1-null cells survive relatively better than parental; CDH1-null viability vs mock: higher = more viable CDH1-null cells; parental viability vs mock: higher = more viable parental cells.
The deposit covers about 18,000 reagents; this is a part drawn at random. Reagent sequences are not shown. Not stated in the record: the amount of reagent, the time to read-out.

gene symbol | CDH1-null / parental viability ratio | CDH1-null viability vs mock (fraction of mock) | parental viability vs mock (fraction of mock)
FHOD1 | 1.08 | 0.53 | 0.49
MCTP2 | 0.83 | 0.64 | 0.77
TCTN3 | 0.83 | 0.62 | 0.75
LUZP4 | 0.78 | 0.63 | 0.81
RELL1 | 1.05 | 0.82 | 0.78
CELF5 | 1.14 | 0.4 | 0.35
LIPG | 1.15 | 1.17 | 1.02
YTHDF1 | 0.92 | 0.78 | 0.85
ZCCHC24 | 1.18 | 0.98 | 0.83
CASP3 | 1.03 | 0.94 | 0.91
CTU2 | 1.31 | 0.84 | 0.64
DNAJB3P | 1.05 | 0.92 | 0.88
MED12L | 0.99 | 0.9 | 0.91
POFUT1 | 0.92 | 0.9 | 0.98
ATP11B | 1.02 | 1.02 | 1
PTGS1 | 0.79 | 0.54 | 0.68
RASL12 | 0.88 | 0.88 | 1
BCAS3 | 1.09 | 0.94 | 0.86
CDKAL1 | 0.73 | 0.61 | 0.84
OR6N2 | 1.05 | 0.96 | 0.91
B4GALNT2 | 0.87 | 0.47 | 0.54
FBXL7 | 1.06 | 0.9 | 0.85
HERPUD1 | 1.18 | 0.9 | 0.76
CRB1 | 0.88 | 1.12 | 1.27
C16orf46 | 0.83 | 0.7 | 0.84
PIK3R4 | 0.62 | 0.53 | 0.86
VHL | 1.31 | 0.77 | 0.59
FGF20 | 0.69 | 0.58 | 0.84
